Data from the supplement of paper PMC10849652.
This is one part of the list. Residues, ends and D or L forms follow the SMILES beside them. *: point of attachment. Cbz = O=C(OCc1ccccc1)*

By UniProt entry, the sequences of proteins in these tests, tags left out. Where a name states a change or a piece, a line headed by the entry shows the natural chain unless it says otherwise.
UniProt Q8IZA0: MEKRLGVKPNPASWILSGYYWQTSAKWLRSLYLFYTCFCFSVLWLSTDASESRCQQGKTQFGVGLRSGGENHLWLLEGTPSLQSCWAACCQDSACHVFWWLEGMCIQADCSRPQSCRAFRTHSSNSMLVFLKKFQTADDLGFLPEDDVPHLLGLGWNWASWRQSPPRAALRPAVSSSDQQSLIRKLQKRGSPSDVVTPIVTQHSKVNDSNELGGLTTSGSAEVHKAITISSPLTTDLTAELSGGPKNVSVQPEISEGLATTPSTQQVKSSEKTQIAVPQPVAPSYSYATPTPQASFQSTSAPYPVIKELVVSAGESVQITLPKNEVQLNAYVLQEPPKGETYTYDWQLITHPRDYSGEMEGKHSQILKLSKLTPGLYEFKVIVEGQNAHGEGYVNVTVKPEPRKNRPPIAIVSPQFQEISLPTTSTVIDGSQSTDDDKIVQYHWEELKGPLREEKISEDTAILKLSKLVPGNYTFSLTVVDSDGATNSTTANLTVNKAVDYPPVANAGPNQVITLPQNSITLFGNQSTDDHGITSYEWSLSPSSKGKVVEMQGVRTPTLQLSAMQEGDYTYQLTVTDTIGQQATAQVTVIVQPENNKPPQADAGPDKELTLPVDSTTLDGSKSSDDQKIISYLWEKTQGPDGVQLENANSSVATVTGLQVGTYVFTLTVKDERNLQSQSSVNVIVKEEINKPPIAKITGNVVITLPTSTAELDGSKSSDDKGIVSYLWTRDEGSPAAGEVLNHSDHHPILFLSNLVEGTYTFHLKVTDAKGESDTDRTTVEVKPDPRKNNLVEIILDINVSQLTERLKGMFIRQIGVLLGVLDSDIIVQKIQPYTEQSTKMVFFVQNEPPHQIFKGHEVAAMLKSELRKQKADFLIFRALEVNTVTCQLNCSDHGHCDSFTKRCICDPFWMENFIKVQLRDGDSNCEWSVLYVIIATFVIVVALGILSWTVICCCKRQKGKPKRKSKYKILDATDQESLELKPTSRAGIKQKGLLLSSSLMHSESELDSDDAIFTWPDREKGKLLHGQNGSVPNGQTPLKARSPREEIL
UniProt P57682: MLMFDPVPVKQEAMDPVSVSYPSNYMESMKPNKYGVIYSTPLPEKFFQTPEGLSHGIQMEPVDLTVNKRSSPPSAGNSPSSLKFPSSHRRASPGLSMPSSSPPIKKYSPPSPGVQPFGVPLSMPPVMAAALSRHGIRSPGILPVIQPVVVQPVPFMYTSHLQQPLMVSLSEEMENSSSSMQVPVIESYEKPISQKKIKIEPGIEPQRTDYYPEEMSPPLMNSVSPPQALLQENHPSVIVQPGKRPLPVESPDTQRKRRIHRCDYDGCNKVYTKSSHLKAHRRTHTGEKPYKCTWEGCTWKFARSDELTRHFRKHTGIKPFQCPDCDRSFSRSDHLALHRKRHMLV
UniProt Q02241: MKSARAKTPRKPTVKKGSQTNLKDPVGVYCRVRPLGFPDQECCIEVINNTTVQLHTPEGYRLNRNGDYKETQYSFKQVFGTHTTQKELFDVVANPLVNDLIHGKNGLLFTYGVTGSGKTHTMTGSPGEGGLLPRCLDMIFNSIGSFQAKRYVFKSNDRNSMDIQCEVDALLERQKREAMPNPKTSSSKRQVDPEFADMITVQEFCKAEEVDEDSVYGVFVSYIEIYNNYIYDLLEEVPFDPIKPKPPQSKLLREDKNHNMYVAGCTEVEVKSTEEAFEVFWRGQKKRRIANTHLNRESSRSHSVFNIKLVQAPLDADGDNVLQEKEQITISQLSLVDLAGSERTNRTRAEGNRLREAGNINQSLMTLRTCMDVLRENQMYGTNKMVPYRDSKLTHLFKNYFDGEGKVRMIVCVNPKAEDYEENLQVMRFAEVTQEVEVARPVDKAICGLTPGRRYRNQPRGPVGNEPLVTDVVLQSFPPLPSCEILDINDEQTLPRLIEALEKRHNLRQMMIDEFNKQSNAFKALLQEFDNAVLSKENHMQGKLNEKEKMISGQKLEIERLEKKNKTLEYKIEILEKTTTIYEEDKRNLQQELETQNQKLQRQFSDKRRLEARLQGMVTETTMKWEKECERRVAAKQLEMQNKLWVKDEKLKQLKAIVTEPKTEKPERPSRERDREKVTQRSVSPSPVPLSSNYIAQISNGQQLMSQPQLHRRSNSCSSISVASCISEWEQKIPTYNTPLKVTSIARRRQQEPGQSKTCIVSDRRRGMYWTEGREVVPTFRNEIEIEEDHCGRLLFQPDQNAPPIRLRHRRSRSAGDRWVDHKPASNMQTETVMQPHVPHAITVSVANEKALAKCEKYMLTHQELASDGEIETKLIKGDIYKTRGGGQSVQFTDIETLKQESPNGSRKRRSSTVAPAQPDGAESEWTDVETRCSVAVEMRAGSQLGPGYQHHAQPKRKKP
UniProt Q96A73: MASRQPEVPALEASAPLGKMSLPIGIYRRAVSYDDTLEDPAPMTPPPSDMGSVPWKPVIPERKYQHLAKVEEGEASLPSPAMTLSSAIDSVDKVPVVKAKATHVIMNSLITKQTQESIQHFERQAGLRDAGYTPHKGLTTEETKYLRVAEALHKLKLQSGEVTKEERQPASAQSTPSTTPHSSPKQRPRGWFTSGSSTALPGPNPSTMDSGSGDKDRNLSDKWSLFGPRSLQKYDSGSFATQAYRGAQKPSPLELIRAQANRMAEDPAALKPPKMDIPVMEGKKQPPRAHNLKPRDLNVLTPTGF
UniProt Q13303: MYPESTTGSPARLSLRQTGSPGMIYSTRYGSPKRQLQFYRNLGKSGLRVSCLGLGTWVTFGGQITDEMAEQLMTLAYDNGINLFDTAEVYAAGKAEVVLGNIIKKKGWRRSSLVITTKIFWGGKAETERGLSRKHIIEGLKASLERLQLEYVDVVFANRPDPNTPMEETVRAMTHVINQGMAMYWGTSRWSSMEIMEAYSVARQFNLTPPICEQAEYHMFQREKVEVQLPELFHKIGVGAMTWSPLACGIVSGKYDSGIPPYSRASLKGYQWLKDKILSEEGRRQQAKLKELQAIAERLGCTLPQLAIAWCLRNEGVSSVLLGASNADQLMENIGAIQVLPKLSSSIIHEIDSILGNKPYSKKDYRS
UniProt Q96SI1: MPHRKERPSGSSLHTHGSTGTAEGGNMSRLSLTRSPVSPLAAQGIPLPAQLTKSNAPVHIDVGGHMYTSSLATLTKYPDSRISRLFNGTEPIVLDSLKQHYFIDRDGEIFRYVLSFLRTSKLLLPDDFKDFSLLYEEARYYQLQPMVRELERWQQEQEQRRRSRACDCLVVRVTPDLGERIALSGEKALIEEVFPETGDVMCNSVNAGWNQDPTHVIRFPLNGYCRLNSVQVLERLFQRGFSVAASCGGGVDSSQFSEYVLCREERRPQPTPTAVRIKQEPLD
UniProt Q9P0J7: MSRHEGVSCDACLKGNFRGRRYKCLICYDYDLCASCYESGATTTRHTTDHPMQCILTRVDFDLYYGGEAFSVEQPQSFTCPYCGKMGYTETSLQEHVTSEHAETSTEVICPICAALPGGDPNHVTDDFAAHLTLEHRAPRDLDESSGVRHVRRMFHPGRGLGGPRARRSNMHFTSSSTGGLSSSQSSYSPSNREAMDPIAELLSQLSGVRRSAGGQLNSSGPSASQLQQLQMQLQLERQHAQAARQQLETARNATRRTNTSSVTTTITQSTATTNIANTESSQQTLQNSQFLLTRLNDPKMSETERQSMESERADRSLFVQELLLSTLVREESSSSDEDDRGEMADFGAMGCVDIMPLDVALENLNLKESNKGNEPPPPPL
UniProt Q8IYS2: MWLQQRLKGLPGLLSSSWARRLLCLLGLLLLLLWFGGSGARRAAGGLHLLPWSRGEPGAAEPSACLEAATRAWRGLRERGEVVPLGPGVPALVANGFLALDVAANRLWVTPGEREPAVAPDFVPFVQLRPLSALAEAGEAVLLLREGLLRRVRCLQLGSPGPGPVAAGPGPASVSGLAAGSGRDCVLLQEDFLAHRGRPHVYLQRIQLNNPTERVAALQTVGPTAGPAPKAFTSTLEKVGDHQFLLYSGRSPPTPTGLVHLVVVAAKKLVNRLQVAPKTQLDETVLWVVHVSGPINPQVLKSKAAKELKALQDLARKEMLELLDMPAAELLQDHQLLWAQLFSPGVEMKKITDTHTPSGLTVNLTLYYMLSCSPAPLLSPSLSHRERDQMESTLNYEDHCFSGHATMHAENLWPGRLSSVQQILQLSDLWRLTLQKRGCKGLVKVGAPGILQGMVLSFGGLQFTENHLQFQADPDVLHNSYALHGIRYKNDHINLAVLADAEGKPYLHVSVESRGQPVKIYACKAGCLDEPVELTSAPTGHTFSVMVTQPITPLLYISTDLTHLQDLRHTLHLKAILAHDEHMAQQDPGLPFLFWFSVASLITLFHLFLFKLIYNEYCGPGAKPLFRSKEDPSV
UniProt Q9Y597: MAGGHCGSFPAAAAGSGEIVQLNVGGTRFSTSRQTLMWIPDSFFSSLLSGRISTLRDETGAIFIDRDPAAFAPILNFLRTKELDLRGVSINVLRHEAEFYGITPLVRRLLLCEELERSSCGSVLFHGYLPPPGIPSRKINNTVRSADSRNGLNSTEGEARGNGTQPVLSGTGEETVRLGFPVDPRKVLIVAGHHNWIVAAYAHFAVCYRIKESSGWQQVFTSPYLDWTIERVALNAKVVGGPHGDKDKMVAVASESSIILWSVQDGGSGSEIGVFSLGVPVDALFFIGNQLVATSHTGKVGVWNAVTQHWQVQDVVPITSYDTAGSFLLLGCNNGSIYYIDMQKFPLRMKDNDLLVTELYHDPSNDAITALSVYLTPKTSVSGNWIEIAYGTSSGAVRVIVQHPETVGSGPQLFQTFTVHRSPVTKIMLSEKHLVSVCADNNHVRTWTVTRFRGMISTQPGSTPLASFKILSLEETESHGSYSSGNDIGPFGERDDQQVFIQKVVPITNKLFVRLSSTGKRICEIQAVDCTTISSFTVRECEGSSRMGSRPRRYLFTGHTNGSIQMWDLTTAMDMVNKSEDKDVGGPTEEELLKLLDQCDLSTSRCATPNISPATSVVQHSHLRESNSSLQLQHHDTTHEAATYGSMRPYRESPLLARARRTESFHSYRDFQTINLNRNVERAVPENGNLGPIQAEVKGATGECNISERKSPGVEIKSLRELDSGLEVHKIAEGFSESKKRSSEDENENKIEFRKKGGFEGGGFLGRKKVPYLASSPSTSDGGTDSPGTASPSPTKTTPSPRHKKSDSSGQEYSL
UniProt Q9BQ90: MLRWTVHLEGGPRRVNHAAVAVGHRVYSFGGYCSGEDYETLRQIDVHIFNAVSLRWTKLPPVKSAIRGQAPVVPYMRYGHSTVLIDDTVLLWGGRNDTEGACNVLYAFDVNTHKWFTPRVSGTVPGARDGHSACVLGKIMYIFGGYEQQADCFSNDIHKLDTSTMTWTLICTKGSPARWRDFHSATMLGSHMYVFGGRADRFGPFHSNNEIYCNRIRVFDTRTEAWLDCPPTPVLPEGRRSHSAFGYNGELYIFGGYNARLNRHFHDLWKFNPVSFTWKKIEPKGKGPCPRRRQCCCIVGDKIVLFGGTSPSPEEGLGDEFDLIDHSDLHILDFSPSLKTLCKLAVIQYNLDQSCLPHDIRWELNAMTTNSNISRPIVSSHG
UniProt Q9UK76: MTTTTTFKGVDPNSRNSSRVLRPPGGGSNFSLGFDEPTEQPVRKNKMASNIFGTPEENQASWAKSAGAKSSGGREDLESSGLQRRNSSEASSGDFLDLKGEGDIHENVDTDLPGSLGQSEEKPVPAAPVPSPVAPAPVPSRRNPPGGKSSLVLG
UniProt Q06136: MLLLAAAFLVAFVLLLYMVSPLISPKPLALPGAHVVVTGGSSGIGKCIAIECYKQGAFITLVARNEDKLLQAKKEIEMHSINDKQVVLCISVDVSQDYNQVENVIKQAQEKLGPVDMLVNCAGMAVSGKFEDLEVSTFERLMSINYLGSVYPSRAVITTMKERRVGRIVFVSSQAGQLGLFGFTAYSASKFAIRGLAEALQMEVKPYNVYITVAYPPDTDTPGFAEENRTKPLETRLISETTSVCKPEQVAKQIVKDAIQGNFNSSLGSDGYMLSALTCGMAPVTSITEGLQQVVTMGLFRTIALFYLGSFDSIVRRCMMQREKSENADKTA
UniProt Q9H910: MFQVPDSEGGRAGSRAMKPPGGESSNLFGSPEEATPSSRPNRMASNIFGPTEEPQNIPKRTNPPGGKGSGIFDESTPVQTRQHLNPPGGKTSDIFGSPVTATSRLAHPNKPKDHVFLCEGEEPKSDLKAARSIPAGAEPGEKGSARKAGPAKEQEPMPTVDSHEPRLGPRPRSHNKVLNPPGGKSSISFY

How the values were obtained:
Test in all cases: log2 fold change, soluble protein after heating vs DMSO (PISA); higher = thermal stabilisation; K562 cells, 10 uM, 30 min; active = over 0.2 and 3.5 SD of the protein, either way, in both replicates (recomputed)
erlotinib = compound: C#Cc1cccc(Nc2ncnc3cc(OCCOC)c(OCCOC)cc23)c1 [erlotinib]
Outline: (§1)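 Values are thermal stability changes relative to control samples and are taken from duplicates. They are stated as log2 fold changes. Before quantification by TMTpro 16plex LC-MS/MS with equalised channel sums, K562 cells at 2×10^6 cells/mL were treated with 10 μM compound for 30 min, heated in aliquots for 3 min across 48°C-58°C, pooled, extracted in PBS with 0.5% NP-40 at 4°C, and centrifuged at 21,000xg for 90 min to give the soluble supernatant.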

[1] = compound: C/C(=N\NC(=O)C1=CC(=CC=C1)S(=O)(=O)N2CCOCC2)/C3=C(C=CC(=C3)Cl)O
Outline: as §1

[2] = compound: C1=CC(=C(C=C1Cl)C2=NC3=NC=CN=C3C(=N2)NC4=CC=NC=C4)F
Outline: as §1

[3] = compound: C1=CC(=CC=C1C2=NC3=C(N2)C=C(C=C3)C(=O)N)OC4=CC=C(C=C4)Cl
Outline: as §1

[4] = compound: C1=CC2=C(C=CC(=C2)/C=C\3/C(=O)NC(=NCC4=CC=CS4)S3)N=C1
Outline: as §1

[5] = compound: C1=CC2=NC=CN=C2C=C1/C=C/3\C(=O)NC(=O)S3
Outline: as §1

[6] = compound: C1=CC=C(C=C1)C2=NC(=C(N2)C3=CC=NC=C3)C4=CC(=C(C=C4)Cl)O
Outline: as §1

[7] = compound: C1=CC=C2C(=C1)C3=NNC4=CC=CC(=C43)C2=O
Outline: as §1

[8] = compound: C1CCN(C1)C(=O)NC2=CC=CC(=C2)NC3=NC=C(C(=N3)NCCC4=CN=CN4)Br
Outline: as §1

[9] = compound: C1CN(CCC1(CC2=CC=C(C=C2)Cl)N)C3=NC=NC4=C3C=CN4
Outline: as §1

IRAK-1-4 Inhibitor I = compound: C1COCCN1CCN2C3=CC=CC=C3N=C2NC(=O)C4=CC(=CC=C4)[N+](=O)[O-] [IRAK-1-4 Inhibitor I]
Outline: as §1

ibrutinib = compound: C=CC(=O)N1CCC[C@@H](n2nc(-c3ccc(Oc4ccccc4)cc3)c3c(N)ncnc32)C1 [ibrutinib]
Outline: as §1

[10] = compound: CC(=O)c1cnc2ccc(-c3cc(Cl)c(O)c(Cl)c3)nc2c1N[C@H]1CC[C@H](CN(C)C)CC1
Outline: as §1

ralimetinib = compound: CC(C)(C)Cn1c(N)nc2ccc(-c3[nH]c(C(C)(C)C)nc3-c3ccc(F)cc3)nc21 [ralimetinib]
Outline: as §1

[11] = compound: CC(C)(O)CC(=O)NCCn1ccc2ncnc(Nc3ccc(Oc4cccc(C(F)(F)F)c4)c(Cl)c3)c21
Outline: as §1

[12] = compound: CC(C)C1=C2N=C(C=C(N2N=C1)NCC3=CC=CC=C3)NCCCCCCN
Outline: as §1

[13] = compound: CC(C)C[C@@H](C=O)NC(=O)[C@H](CC(C)C)NC(=O)[C@H](CC(C)C)NC(=O)OCc1ccccc1
Outline: as §1

pinometostat = compound: CC(C)N(C[C@H]1O[C@@H](n2cnc3c(N)ncnc32)[C@H](O)[C@@H]1O)[C@H]1C[C@@H](CCc2nc3cc(C(C)(C)C)ccc3[nH]2)C1 [pinometostat]
Outline: as §1

[14] = compound: CC1=C(C(CC(=O)N1)C2=CC=C(C=C2)C(F)(F)F)C(=O)NC3=C(C=C4C(=C3)C=NN4)F
Outline: as §1

[15] = compound: CC1=C(C2=C(C=C1)C(=O)C3=CC=CC=C3N2CCCN)C
Outline: as §1

Measured: log2 fold change

KIAA0319L (UniProt Q8IZA0)
inactive: erlotinib -0.036 | [1] 0.015 | [2] -0.022 | [3] 0.01 | [4] 0.032 | [5] 0.023 | [6] 0.035 | [7] -0.049 | [8] -0.01 | [9] 0.042 | IRAK-1-4 Inhibitor I 0.069 | ibrutinib 0.027 | [10] -0.056 | ralimetinib -0.027 | [11] 0.012 | [12] -0.077 | [13] 0.016 | pinometostat -0.012 | [14] -0.016 | [15] 0.003

KLF3 (UniProt P57682)
inactive: erlotinib 0.046 | [1] -0.106 | [2] -0.012 | [3] -0.07 | [4] -0.03 | [5] 0.077 | [6] -0.096 | [7] 0 | [8] 0.087 | [9] 0.041 | IRAK-1-4 Inhibitor I -0.015 | ibrutinib -0.107 | [10] 0.064 | ralimetinib -0.025 | [11] 0.054 | [12] -0.1 | [13] 0.259 | pinometostat 0.004 | [14] -0.143 | [15] -0.141

KIF23 (UniProt Q02241)
inactive: erlotinib -0.103 | [1] 0.033 | [2] -0.113 | [3] 0.162 | [4] -0.066 | [5] -0.045 | [6] -0.035 | [7] 0.061 | [8] -0.079 | [9] -0.05 | IRAK-1-4 Inhibitor I 0.163 | ibrutinib 0.123 | [10] -0.123 | ralimetinib 0.078 | [11] -0.105 | [12] -0.154 | [13] 0 | pinometostat 0 | [14] -0.094 | [15] 0

KIAA1191 (UniProt Q96A73)
inactive: erlotinib 0.018 | [1] 0.025 | [2] 0.017 | [3] -0.06 | [4] 0.066 | [5] 0.075 | [6] 0.003 | [7] -0.011 | [8] 0.064 | [9] -0.055 | IRAK-1-4 Inhibitor I 0.01 | ibrutinib -0.047 | [10] 0.01 | ralimetinib -0.017 | [11] 0 | [12] -0.059 | [13] -0.008 | pinometostat -0.061 | [14] 0.033 | [15] 0.159

KBTBD4 isoform 2 (UniProt Q9NVX7)
inactive: erlotinib -0.048 | [1] 0.032 | [2] 0.083 | [3] 0.042 | [4] 0.048 | [5] -0.022 | [6] -0.003 | [7] 0.133 | [8] 0.1 | [9] 0.054 | IRAK-1-4 Inhibitor I -0.003 | ibrutinib 0.091 | [10] -0.029 | ralimetinib -0.04 | [11] -0.077 | [12] -0.01 | [13] 0.024 | pinometostat -0.028 | [14] -0.022 | [15] 0.014

KMT2D isoform 3 (UniProt O14686)
inactive: erlotinib 0.032 | [1] 0 | [2] -0.128 | [3] -0.039 | [4] 0.032 | [5] -0.039 | [6] 0.003 | [7] -0.004 | [8] -0.179 | [9] -0.122 | IRAK-1-4 Inhibitor I -0.048 | ibrutinib -0.126 | [10] -0.184 | ralimetinib 0.085 | [11] 0.047 | [12] 0.021 | [13] -0.058 | pinometostat 0.091 | [14] 0.009 | [15] -0.004

KCNAB2 (UniProt Q13303)
inactive: erlotinib -0.023 | [1] -0.049 | [2] -0.012 | [3] 0.089 | [4] 0.017 | [5] 0.133 | [6] -0.073 | [7] -0.004 | [8] 0.013 | [9] 0.053 | IRAK-1-4 Inhibitor I 0.017 | ibrutinib -0.021 | [10] 0.002 | ralimetinib -0.019 | [11] 0.035 | [12] 0.162 | [13] 0.026 | pinometostat -0.031 | [14] -0.024 | [15] 0.031

KCTD15 (UniProt Q96SI1)
inactive: erlotinib 0.048 | [1] 0.017 | [2] 0.087 | [3] -0.004 | [4] 0.019 | [5] 0.03 | [6] -0.101 | [7] -0.044 | [8] 0.065 | [9] 0.015 | IRAK-1-4 Inhibitor I 0.015 | ibrutinib -0.032 | [10] -0.035 | ralimetinib -0.091 | [11] -0.016 | [12] 0.102 | [13] -0.062 | pinometostat -0.001 | [14] 0 | [15] 0.014

KCMF1 (UniProt Q9P0J7)
inactive: erlotinib -0.001 | [1] -0.112 | [2] 0.098 | [3] -0.014 | [4] -0.056 | [5] 0.02 | [6] 0.032 | [7] 0 | [8] -0.013 | [9] -0.174 | IRAK-1-4 Inhibitor I -0.01 | ibrutinib 0 | [10] 0.06 | ralimetinib -0.002 | [11] -0.082 | [12] -0.038 | [13] 0.076 | pinometostat 0.075 | [14] 0.055 | [15] 0.076

KIAA2013 isoform 2 (UniProt Q8IYS2)
inactive: erlotinib -0.014 | [1] 0.014 | [2] 0.024 | [3] 0.016 | [4] -0.026 | [5] 0.022 | [6] -0.015 | [7] 0.018 | [8] 0.039 | [9] 0.022 | IRAK-1-4 Inhibitor I -0.002 | ibrutinib 0.003 | [10] 0.08 | ralimetinib -0.018 | [11] 0.011 | [12] -0.002 | [13] 0.004 | pinometostat 0.072 | [14] 0.044 | [15] -0.032

KCTD3 (UniProt Q9Y597)
inactive: erlotinib 0.016 | [1] -0.082 | [2] -0.029 | [3] 0.045 | [4] 0.102 | [5] 0.001 | [6] -0.182 | [7] -0.037 | [8] 0.032 | [9] 0.028 | IRAK-1-4 Inhibitor I 0.03 | ibrutinib 0.012 | [10] -0.066 | ralimetinib -0.094 | [11] 0.023 | [12] 0.091 | [13] 0.131 | pinometostat 0.023 | [14] 0.012 | [15] -0.006

JMJD1C (UniProt Q15652)
inactive: erlotinib 0.018 | [1] -0.013 | [2] 0.1 | [3] 0.004 | [4] 0.08 | [5] 0.055 | [6] -0.055 | [7] -0.065 | [8] -0.035 | [9] 0.025 | IRAK-1-4 Inhibitor I -0.014 | ibrutinib -0.073 | [10] -0.079 | ralimetinib 0.003 | [11] -0.064 | [12] -0.013 | [13] -0.008 | pinometostat -0.007 | [14] -0.099 | [15] -0.004

KLHDC3 (UniProt Q9BQ90)
inactive: erlotinib -0.011 | [1] 0.069 | [2] 0.007 | [3] 0.08 | [4] 0.112 | [5] 0.034 | [6] -0.092 | [7] -0.052 | [8] 0.064 | [9] 0.027 | IRAK-1-4 Inhibitor I 0.055 | ibrutinib 0.029 | [10] -0.068 | ralimetinib -0.049 | [11] -0.024 | [12] 0.074 | [13] 0.048 | pinometostat 0.003 | [14] 0.011 | [15] -0.029

JPT1 (UniProt Q9UK76)
inactive: erlotinib 0.015 | [1] -0.031 | [2] 0.047 | [3] 0.014 | [4] -0.063 | [5] 0.005 | [6] -0.023 | [7] 0.055 | [8] -0.039 | [9] 0.048 | IRAK-1-4 Inhibitor I 0.024 | ibrutinib 0.025 | [10] 0.006 | ralimetinib -0.018 | [11] 0.04 | [12] 0.041 | [13] 0.03 | pinometostat -0.055 | [14] 0.037 | [15] 0.027

Fetched one by one from above, two records:
KCTD3 (UniProt Q9Y597)
inactive: erlotinib 0.016 | [1] -0.082 | [2] -0.029 | [3] 0.045 | [4] 0.102 | [5] 0.001 | [6] -0.182 | [7] -0.037 | [8] 0.032 | [9] 0.028 | IRAK-1-4 Inhibitor I 0.03 | ibrutinib 0.012 | [10] -0.066 | ralimetinib -0.094 | [11] 0.023 | [12] 0.091 | [13] 0.131 | pinometostat 0.023 | [14] 0.012 | [15] -0.006

KLHDC3 (UniProt Q9BQ90)
inactive: erlotinib -0.011 | [1] 0.069 | [2] 0.007 | [3] 0.08 | [4] 0.112 | [5] 0.034 | [6] -0.092 | [7] -0.052 | [8] 0.064 | [9] 0.027 | IRAK-1-4 Inhibitor I 0.055 | ibrutinib 0.029 | [10] -0.068 | ralimetinib -0.049 | [11] -0.024 | [12] 0.074 | [13] 0.048 | pinometostat 0.003 | [14] 0.011 | [15] -0.029

(continued)

KDSR (UniProt Q06136)
inactive: erlotinib -0.04 | [1] 0.062 | [2] 0.075 | [3] 0.003 | [4] -0.014 | [5] 0.053 | [6] -0.011 | [7] -0.027 | [8] -0.01 | [9] 0.099 | IRAK-1-4 Inhibitor I -0.028 | ibrutinib 0.037 | [10] 0.09 | ralimetinib -0.02 | [11] -0.051 | [12] 0.068 | [13] -0.036 | pinometostat -0.045 | [14] 0.028 | [15] 0.008

JPT2 isoform 3 (UniProt Q9H910)
inactive: erlotinib 0.002 | [1] -0.046 | [2] 0.048 | [3] 0.03 | [4] -0.062 | [5] -0.003 | [6] -0.001 | [7] 0.032 | [8] 0.044 | [9] 0.047 | IRAK-1-4 Inhibitor I 0.076 | ibrutinib -0.007 | [10] -0.022 | ralimetinib 0.018 | [11] 0.017 | [12] 0.075 | [13] 0.018 | pinometostat -0.036 | [14] 0.011 | [15] -0.027
